The list shows a part of the results.
How the values were obtained:
Assay in all cases: glycan array binding signal (z-score within array); higher = stronger binding
Conditions in all cases: glycan notation: IUPAC condensed, linker removed
[1] = molecular target: Man(a1-2)Man(a1-3)[Man(a1-2)Man(a1-6)]Man(a1-6)[Man(a1-2)Man(a1-2)Man(a1-3)]Man
Outline: (§1)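 Negative Z-scores can be read as non-binding. The Z-score is calculated within each array and then averaged across arrays of one protein sequence at different concentrations or buffers and across linkers. Arrays, 3228 in all, were curated from the Consortium for Functional Glycomics database and kept only where the protein sequence was available.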

[2] = molecular target: Man(a1-2)Man(a1-3)[Man(a1-2)Man(a1-6)]Man(a1-6)[Man(a1-2)Man(a1-2)Man(a1-3)]Man(b1-4)GlcNAc(b1-4)GlcNAc
Outline: as §1

[3] = molecular target: Man(a1-2)Man(a1-3)[Man(a1-6)]Man(a1-6)[Man(a1-2)Man(a1-3)]Man(b1-4)GlcNAc(b1-4)GlcNAc
Outline: as §1

[4] = molecular target: Man(a1-2)Man(a1-6)[Man(a1-3)]Man(a1-6)[Man(a1-2)Man(a1-2)Man(a1-3)]Man
Outline: as §1

[5] = molecular target: Man(a1-2)Man(a1-6)[Man(a1-3)]Man(a1-6)[Man(a1-2)Man(a1-2)Man(a1-3)]Man(b1-4)GlcNAc(b1-4)GlcNAc
Outline: as §1

Man(a1-3)[Man(a1-6)]Man = molecular target: Man(a1-3)[Man(a1-6)]Man
Outline: as §1

[6] = molecular target: Man(a1-3)[Man(a1-6)]Man(a1-6)[Man(a1-2)Man(a1-3)]Man(b1-4)GlcNAc(b1-4)GlcNAc
Outline: as §1

[7] = molecular target: Man(a1-3)[Man(a1-6)]Man(a1-6)[Man(a1-3)]Man
Outline: as §1

[8] = molecular target: Man(a1-3)[Man(a1-6)]Man(a1-6)[Man(a1-3)]Man(b1-4)GlcNAc(b1-4)GlcNAc
Outline: as §1

[9] = molecular target: Man(a1-3)[Man(a1-6)]Man(b1-4)GlcNAc(b1-4)GlcNAc
Outline: as §1

[10] = molecular target: Man(a1-3)[Man(a1-6)]Man(b1-4)GlcNAc(b1-4)[Fuc(a1-6)]GlcNAc
Outline: as §1

Man(a1-6)Man = molecular target: Man(a1-6)Man
Outline: as §1

Man(b1-4)GlcNAc = molecular target: Man(b1-4)GlcNAc
Outline: as §1

MurNAc(b1-4)GlcNAc = molecular target: MurNAc(b1-4)GlcNAc
Outline: as §1

Neu5Ac(a2-3)Gal = molecular target: Neu5Ac(a2-3)Gal
Outline: as §1

[11] = molecular target: Neu5Ac(a2-3)Gal(b1-3)GalNAc
Outline: as §1

[12] = molecular target: Neu5Ac(a2-3)Gal(b1-3)GalNAc(b1-3)Gal(a1-4)Gal(b1-4)Glc
Outline: as §1

[13] = molecular target: Neu5Ac(a2-3)Gal(b1-3)GalNAc(b1-4)Gal(b1-4)Glc
Outline: as §1

[14] = molecular target: Neu5Ac(a2-3)Gal(b1-3)GalNAc(b1-4)[Neu5Ac(a2-3)]Gal(b1-4)Glc
Outline: as §1

[15] = molecular target: Neu5Ac(a2-3)Gal(b1-3)GalNAc(b1-4)[Neu5Ac(a2-8)Neu5Ac(a2-3)]Gal(b1-4)Glc
Outline: as §1

[16] = molecular target: Neu5Ac(a2-3)Gal(b1-3)GalNAc6S
Outline: as §1

[17] = molecular target: Neu5Ac(a2-3)Gal(b1-3)GlcNAc
Outline: as §1

[18] = molecular target: Neu5Ac(a2-3)Gal(b1-3)GlcNAc(b1-2)Man
Outline: as §1

[19] = molecular target: Neu5Ac(a2-3)Gal(b1-3)GlcNAc(b1-2)Man(a1-3)[GlcNAc(b1-4)][Neu5Ac(a2-3)Gal(b1-3)GlcNAc(b1-2)Man(a1-6)]Man(b1-4)GlcNAc(b1-4)GlcNAc
Outline: as §1

[20] = molecular target: Neu5Ac(a2-3)Gal(b1-3)GlcNAc(b1-2)Man(a1-3)[Neu5Ac(a2-3)Gal(b1-3)GlcNAc(b1-2)Man(a1-6)]Man(b1-4)GlcNAc(b1-4)GlcNAc
Outline: as §1

[21] = molecular target: Neu5Ac(a2-3)Gal(b1-3)GlcNAc(b1-2)[Neu5Ac(a2-3)Gal(b1-3)GlcNAc(b1-4)]Man(a1-6)[Neu5Ac(a2-3)Gal(b1-3)GlcNAc(b1-2)Man(a1-3)]Man(b1-4)GlcNAc(b1-4)GlcNAc
Outline: as §1

[22] = molecular target: Neu5Ac(a2-3)Gal(b1-3)GlcNAc(b1-3)Gal(b1-3)GlcNAc
Outline: as §1

[23] = molecular target: Neu5Ac(a2-3)Gal(b1-3)GlcNAc(b1-3)Gal(b1-4)GlcNAc
Outline: as §1

[24] = molecular target: Neu5Ac(a2-3)Gal(b1-3)GlcNAc(b1-3)GalNAc
Outline: as §1

[25] = molecular target: Neu5Ac(a2-3)Gal(b1-3)GlcNAc(b1-6)GalNAc
Outline: as §1

[26] = molecular target: Neu5Ac(a2-3)Gal(b1-3)GlcNAc6S
Outline: as §1

[27] = molecular target: Neu5Ac(a2-3)Gal(b1-3)[Fuc(a1-4)]GlcNAc
Outline: as §1

[28] = molecular target: Neu5Ac(a2-3)Gal(b1-3)[Fuc(a1-4)]GlcNAc(b1-3)Gal(b1-3)[Fuc(a1-4)]GlcNAc
Outline: as §1

[29] = molecular target: Neu5Ac(a2-3)Gal(b1-3)[Fuc(a1-4)]GlcNAc(b1-3)Gal(b1-4)[Fuc(a1-3)]GlcNAc
Outline: as §1

[30] = molecular target: Neu5Ac(a2-3)Gal(b1-3)[GlcNAc(b1-6)]GalNAc
Outline: as §1

[31] = molecular target: Neu5Ac(a2-3)Gal(b1-3)[Neu5Ac(a2-6)]GalNAc
Outline: as §1

[32] = molecular target: Neu5Ac(a2-3)Gal(b1-3)[Neu5Ac(a2-6)]GlcNAc(b1-3)[Fuc(a1-3)[Gal(b1-4)]GlcNAc(b1-6)]Gal(b1-4)Glc
Outline: as §1

[33] = molecular target: Neu5Ac(a2-3)Gal(b1-3)]Neu5Ac(a2-3)Gal(b1-4)]GlcNAc
Outline: as §1

Neu5Ac(a2-3)Gal(b1-4)Glc = molecular target: Neu5Ac(a2-3)Gal(b1-4)Glc
Outline: as §1

[34] = molecular target: Neu5Ac(a2-3)Gal(b1-4)GlcNAc
Outline: as §1

[35] = molecular target: Neu5Ac(a2-3)Gal(b1-4)GlcNAc(b1-2)Man
Outline: as §1

[36] = molecular target: Neu5Ac(a2-3)Gal(b1-4)GlcNAc(b1-2)Man(a1-3)[GlcNAc(b1-4)][Neu5Ac(a2-3)Gal(b1-4)GlcNAc(b1-2)Man(a1-6)]Man(b1-4)GlcNAc(b1-4)GlcNAc
Outline: as §1

[37] = molecular target: Neu5Ac(a2-3)Gal(b1-4)GlcNAc(b1-2)Man(a1-3)[Neu5Ac(a2-3)Gal(b1-4)GlcNAc(b1-2)Man(a1-6)]Man(b1-4)GlcNAc(b1-4)GlcNAc
Outline: as §1

[38] = molecular target: Neu5Ac(a2-3)Gal(b1-4)GlcNAc(b1-2)Man(a1-3)[Neu5Ac(a2-3)Gal(b1-4)GlcNAc(b1-2)Man(a1-6)]Man(b1-4)GlcNAc(b1-4)[Fuc(a1-6)]GlcNAc
Outline: as §1

[39] = molecular target: Neu5Ac(a2-3)Gal(b1-4)GlcNAc(b1-2)Man(a1-3)[Neu5Ac(a2-6)Gal(b1-4)GlcNAc(b1-2)Man(a1-6)]Man(b1-4)GlcNAc(b1-4)GlcNAc
Outline: as §1

B1: LlpB (Pseudomonas fluorescens) (protein)
chain: MGSSHHHHHHSSGLVPRGSHMASSGFRIILFNSANNGTAILPPRNCLVAGQYLESPSKRYKLILEADGNLRLYDNGVPIWVADSSVPYTYVDNRPNTNLVTCFYMQGSAFLVDRVGSRTWATIGDWIDGAADRAYLQVQDDGNVVVVDGVPRWARFGFTPAALPNRGVFYPDHGTGPLPSFPVWSWTF
glycan array binding signal (z-score) [1]: -0.376
glycan array binding signal (z-score) [2]: -0.549
glycan array binding signal (z-score) [3]: -0.792
glycan array binding signal (z-score) [4]: 0.205
glycan array binding signal (z-score) [5]: -0.303
glycan array binding signal (z-score) (Man(a1-3)[Man(a1-6)]Man): -0.46
glycan array binding signal (z-score) [6]: -1.03
glycan array binding signal (z-score) [7]: -1.07
glycan array binding signal (z-score) [8]: 0.605
glycan array binding signal (z-score) [9]: 0.621
glycan array binding signal (z-score) [10]: -0.549
glycan array binding signal (z-score) (Man(a1-6)Man): 0.82
glycan array binding signal (z-score) (Man(b1-4)GlcNAc): 1.66
glycan array binding signal (z-score) (MurNAc(b1-4)GlcNAc): 2.54
glycan array binding signal (z-score) (Neu5Ac(a2-3)Gal): -0.87
glycan array binding signal (z-score) [11]: -0.316
glycan array binding signal (z-score) [12]: 1.05
glycan array binding signal (z-score) [13]: -1.02
glycan array binding signal (z-score) [14]: 2.9
glycan array binding signal (z-score) [15]: -1.93
glycan array binding signal (z-score) [16]: -0.819
glycan array binding signal (z-score) [17]: 0.012
glycan array binding signal (z-score) [18]: 2.63
glycan array binding signal (z-score) [19]: -0.515
glycan array binding signal (z-score) [20]: 1.14
glycan array binding signal (z-score) [21]: -0.567
glycan array binding signal (z-score) [22]: 0.202
glycan array binding signal (z-score) [23]: 0.213
glycan array binding signal (z-score) [24]: -0.863
glycan array binding signal (z-score) [25]: -0.193
glycan array binding signal (z-score) [26]: 0.288
glycan array binding signal (z-score) [27]: 2.3
glycan array binding signal (z-score) [28]: -0.535
glycan array binding signal (z-score) [29]: 2.31
glycan array binding signal (z-score) [30]: -0.378
glycan array binding signal (z-score) [31]: -0.428
glycan array binding signal (z-score) [32]: -0.049
glycan array binding signal (z-score) [33]: 0.125
glycan array binding signal (z-score) (Neu5Ac(a2-3)Gal(b1-4)Glc): 2.98
glycan array binding signal (z-score) [34]: -1.1
glycan array binding signal (z-score) [35]: 1.15
glycan array binding signal (z-score) [36]: -1.06
glycan array binding signal (z-score) [37]: 1.26
glycan array binding signal (z-score) [38]: -0.332
glycan array binding signal (z-score) [39]: -0.622

From the supplement of paper PMC8728848
